Data on 3 molecules can be found in publication doi:10.1101/2022.05.24.493304.

Sequences and labels used below:
T1: STX5 (human (endogenous in HEK293T)) (UniProt Q13190)
T1 sequence: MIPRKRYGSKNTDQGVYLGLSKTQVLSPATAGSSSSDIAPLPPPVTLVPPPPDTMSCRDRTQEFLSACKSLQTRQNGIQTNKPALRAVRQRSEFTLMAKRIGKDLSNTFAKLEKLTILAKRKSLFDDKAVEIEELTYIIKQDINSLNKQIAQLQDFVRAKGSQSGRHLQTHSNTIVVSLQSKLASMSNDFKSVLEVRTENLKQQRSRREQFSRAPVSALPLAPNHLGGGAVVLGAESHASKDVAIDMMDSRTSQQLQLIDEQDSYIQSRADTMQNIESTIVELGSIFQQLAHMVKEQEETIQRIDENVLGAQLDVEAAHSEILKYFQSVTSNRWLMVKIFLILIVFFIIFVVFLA

B1: BET1 (protein, UniProt O15155 1-118)
chain: MRRAGLGEGVPPGNYGNYGYANSGYSACEEENERLTESLRSKVTAIKSLSIEIGHEVKTQNKLLAEMDSQFDSTTGFLGKTMGKLKILSRGSQTKLLCYMMLFSLFVFFIIYWIIKLR
B2: YKT6 (protein, UniProt O15498 1-198)
chain: MKLYSLSVLYKGEAKVVLLKAAYDVSSFSFFQRSSVQEFMTFTSQLIVERSSKGTRASVKEQDYLCHVYVRNDSLAGVVIADNEYPSRVAFTLLEKVLDEFSKQVDRIDWPVGSPATIHYPALDGHLSRYQNPREADPMTKVQAELDETKIILHNTMESLLERGEKLDDLVSKSEVLGTQSKAFYKTARKQNSCCAIM
B3: VTI1B (protein, UniProt Q9UEU0 1-232)
chain: MASSAASSEHFEKLHEIFRGLHEDLQGVPERLLGTAGTEEKKKLIRDFDEKQQEANETLAEMEEELRYAPLSFRNPMMSKLRNYRKDLAKLHREVRSTPLTATPGGRGDMKYGIYAVENEHMNRLQSQRAMLLQGTESLNRATQSIERSHRIATETDQIGSEIIEELGEQRDQLERTKSRLVNTSENLSKSRKILRSMSRKVTTNKLLLSIIILLELAILGGLVYYKFFRSH

No constants are given. Whether binding was seen depends on the method and setting. In cells and extracts the contact can be indirect. A yes stands for co-enrichment or nearness to the bait. Other partners may have been found.

In this experiment the target is T1, STX5 (human (endogenous in HEK293T)). In words: affinity purification with mass spectrometry.
Regarding B1, the binding result is recorded as “binds”.
Then B2, with “binds”; and B3, with “binds”.
